{"source": "paper PMC11207335", "about": "“In Vitro Metabolism and Transport Characteristics of Zastaprazan” (Pharmaceutics, 2024)", "assay": "Apparent permeability in Caco-2 cells", "assay_type": "in vitro ADME", "conditions": "human", "experimental": "Caco-2 cells (passage no. 41–42) were grown in tissue culture flasks containing Dulbecco’s Modified Eagle Medium supplemented with 20% FBS, 1% nonessential amino acids, and 1% penicillin–streptomycin. […] The culture medium was replaced every other day. On the day of the experiment, the growth medium was discarded, and the attached cells were washed with prewarmed HBSS (pH 7.4) and preincubated with HBSS for 20 min at 37 °C. […] Aliquots (30 μL) of each sample were vortex-mixed with 90 μL of IS solution for 1 min, and then centrifugation was performed at 13,500 rpm at 4 °C for 5 min. Aliquots (5 μL) of the supernatant were injected into the LC-MS/MS for analysis.", "data": [{"smiles": "CC(C)NCC(O)COc1ccc(CC(N)=O)cc1", "note": "(stereo not drawn) [Atenolol]", "values": [{"measurement": "Papp A→B at 1 h, 4 µM", "setting": "Caco-2, pH 7.4", "result": "0.11 ± 0.01", "unit": "×10⁻⁶ cm/s"}, {"measurement": "Papp B→A at 1 h, 4 µM", "setting": "Caco-2, pH 7.4", "result": "0.11 ± 0.01", "unit": "×10⁻⁶ cm/s"}, {"measurement": "efflux ratio at 1 h, 4 µM", "setting": "pH 7.4, Caco-2, mean Papp,BA / mean Papp,AB, read-out: ER", "result": 0.98}]}]}
